Laboratory results: publication PMC11254172 (International Journal for Parasitology: Drugs and Drug …, 2024)
Like-named read-outs stand apart in the source and are kept apart here.

Experiments:
[1] = tested on: N. caninum NcSpain-7 tachyzoites; conditions: in vivo
[2] = tested on: zebrafish (Danio rerio) embryos; conditions: 96 h exposure
[3] = tested on: T. gondii TgShSp1 oocysts; conditions: for Tg-PCR brain positive adults: adult CD1 mice
[4] = 20 mg/kg/day for 5 days, mice

CC(C)(CO)Cn1nc(-c2ccc3cc(OC4CC4)ccc3c2)c(C(N)=O)c1N [BKI-1708]
Nc-PCR positive brain adults [1]: 4/14 | Concentration not interfering with zebrafish embryo development ([2]; 0.2 to 50 μM tested): up to 2 μM | Effect on zebrafish embryo development at concentrations higher than 2 μM ([2]; above 2 μM up to 50 μM): detrimental effects | Tg-PCR brain positive adults ([3]; 5 mg/kg/day oral x 5 days): 11/12 | Tg-PCR brain positive pups ([3]; 5 mg/kg/day oral x 5 days): 130/132 | Tg-PCR brain positive adults ([3]; 20 mg/kg/day oral x 5 days): 10/12 | Tg-PCR brain positive pups ([3]; 20 mg/kg/day oral x 5 days): 14/90 | Mean plasma concentration (overall) [4]: 1040 ± 780 nM | Plasma level for each time point / average threshold [4]: below 2 μM
